Measurements taken from publication PMC4199759.
Results are given in words; binding and its absence hold for the method and conditions named. A result given as binding can be weak or reduced; the word gives no strength. For part of these data: In cells and extracts the contact can be indirect. For part of these data: Sequences can lack the tags named with a protein.

B1: Osh3p, split-ubiquitin prey (protein, UniProt P38713 1-996)
chain: METIDIQNRSFVVRWVKCGRGDVINYQIKPLKKSIEVGIYKKLKSSVDDHASAVHIAPDTKTLLDYTTKSLLHKGSSSNIEEHHRRSSQHSHSSSNGSDNKRKERSYSSLSISGIQQQSQEIPLREKLSASGFTLVKRVGNVSGNTMVQGDLEVKDTDYYYAFILDNSSSKNAKKKILFNASVINGDNQSMISTRSTPPARPTALSRTSTQQDMLFRVGQGRYLQGYLLKKRRKRLQGFKKRFFTLDFRYGTLSYYLNDHNQTCRGEIVISLSSVSANKKDKIIIIDSGMEVWVLKATTKENWQSWVDALQTCFDDQFEDKDTSTLEENPDILDDDKEVINKSSPQDHDHLTPTATTKSALSHRQHTQKDMDDIYVPLPSESYATFSMNLRLIQQRLEQCKKDSLSYKPTTLHQRSEGLNGTHSSSSVFTNNRVSSFNHSSSGMTSSDSLASEEVPSNKTYIEHALYNQLADLEVFVSRFVTQGEVLFKDHQILCKKAKDTRVSLTSYLSENDEFFDAEEEISRGVIILPDTEDDINNIVEETPLLGKSDQNEFTKEVQLSGSEQIASSSVESYTTNDENHSRKHLKNRHKNRRRGHPHHQKTKSAQSSTETFTSKDLFALSYPKSVTRRNDIPEAAASPPSLLSFLRKNVGKDLSSIAMPVTSNEPISILQLISETFEYAPLLTKATQRPDPITFVSAFAISFLSIYRDKTRTLRKPFNPLLAETFELIREDMGFRLISEKVSHRPPVFAFFAEHLDWECSYTVTPSQKFWGKSIELNNEGILRLKFKTTGELFEWTQPTTILKNLIAGERYMEPVNEFEVHSSKGDKSHILFDKAGMFSGRSEGFKVSIIPPPSSNRKKETLAGKWTQSLANETTHETIWEVGDLVSNPKKKYGFTKFTANLNEITEIEKGNLPPTDSRLRPDIRAYEEGNVDKAEEWKLKLEQLQRERRNKGQDVEPKYFEKVSKNEWKYITGPKSYWERRKKHDWSDISQLW
B2: Osh6p, split-ubiquitin prey (protein, UniProt Q02201 1-448)
chain: MGSKKLTVGSDSHRLSKSSFSSNKSSHSATKDQPIDTDDIDEDDESGHNIILNIISQLRPGCDLTRITLPTFILEKKSMLERVTNQLQFPEFLLQAHSEKDPLKRFLYVMKWYLAGWHIAPKAVKKPLNPVLGEYFTAYWDLPNKQQAYYISEQTSHHPPECAYFYMIPESSIRVDGVVIPKSRFLGNSSAAMMDGSTVLQFLDIKDGNGKPEKYVLTQPNVYVRGILFGKMRIELGDHMIIKSPNFQADIEFKTKGYVFGTYDAIEGTVKDYDGNAYYEISGKWNDVMYLKDLKQPRSSPKVFLDTHKESPLRPKVRPLSEQGEYESRKLWKKVTDALAVRNHPVATEEKFQIEDHQRQLAKKRIEDGVEFHPKLFRRSKPGEDLDYCIYKNIPVDEDPEKQIRSILQIAPILPGQQFTDKFFIPAFEKIKSQKKMIENEKQNPAKQ
B3: Osh7p, split-ubiquitin prey (protein, UniProt P38755 1-437)
chain: MALNKLKNIPSLTNSSHSSINGIASNAANSKPSGADTDDIDENDESGQSILLNIISQLKPGCDLSRITLPTFILEKKSMLERITNQLQFPDVLLEAHSNKDGLQRFVKVVAWYLAGWHIGPRAVKKPLNPILGEHFTAYWDLPNKQQAFYIAEQTSHHPPESAYFYMIPESNIRVDGVVVPKSKFLGNSSAAMMEGLTVLQFLDIKDANGKPEKYTLSQPNVYARGILFGKMRIELGDHMVIMGPKYQVDIEFKTKGFISGTYDAIEGTIKDYDGKEYYQISGKWNDIMYIKDLREKSSKKTVLFDTHQHFPLAPKVRPLEEQGEYESRRLWKKVTDALAVRDHEVATEEKFQIENRQRELAKKRAEDGVEFHSKLFRRAEPGEDLDYYIYKHIPEGTDKHEEQIRSILETAPILPGQTFTEKFSIPAYKKHGIQKN
B4: Scs2p VAP protein, split-ubiquitin prey (protein, UniProt P40075 1-244)
chain: MSAVEISPDVLVYKSPLTEQSTEYASISNNSDQTIAFKVKTTAPKFYCVRPNAAVVAPGETIQVQVIFLGLTEEPAADFKCRDKFLVITLPSPYDLNGKAVADVWSDLEAEFKQQAISKKIKVKYLISPDVHPAQNQNIQENKETVEPVVQDSEPKEVPAVVNEKEVPAEPETQPPVQVKKEEVPPVVQKTVPHENEKQTSNSTPAPQNQIKEAATVPAENESSSMGIFILVALLILVLGWFYR
B5: Scs2-derived Int/TM construct (Δ1-126), split-ubiquitin prey (domain or fragment, UniProt P40075 127-244)
chain: ISPDVHPAQNQNIQENKETVEPVVQDSEPKEVPAVVNEKEVPAEPETQPPVQVKKEEVPPVVQKTVPHENEKQTSNSTPAPQNQIKEAATVPAENESSSMGIFILVALLILVLGWFYR
B6: recombinant GST-His6-Osh3 protein (protein, UniProt P38713 1-996)
chain: B1 chain
B7: recombinant GST-His6-Osh6 protein (protein, UniProt Q02201 1-448)
chain: B2 chain
B8: recombinant GST-His6-Osh7 protein (protein, UniProt P38755 1-437)
chain: B3 chain
B9: C-terminal half of Venus YFP (aa 155-236) fused to Osh6p (protein, UniProt Q02201 1-448)
chain: B2 chain

Target: p33 replication protein, split-ubiquitin bait (plasmid pGAD-BT2-N-His33) (Tomato bushy stunt virus (TBSV))
Assay: two-hybrid; yeast membrane two-hybrid (split-ubiquitin) assay; bait p33, NubG preys; yeast NMY51 (scs2Δ yeast in Figure 5A); growth on TLHA- plates at 30°C

Q: Which binding does the source give for B1 here?
A: binds

Q: How did the binding turn out when B2 was run?
A: binds

Q: With B3 as the binder, how does the binding read?
A: binds

Q: For B4, which binding is on record?
A: binds

Q: For B5, which binding is on record?
A: binds

Target: MBP-tagged TBSV p33 protein (the C-terminal portion) (Tomato bushy stunt virus (TBSV))
Assay: pull-down; MBP-p33 (C-terminal portion) captured on amylose columns; lysates of E. coli expressing GST-His6-Osh proteins passed through; elution with maltose; Western blot with anti-His antibody; only the target purified

Q: B6 was tested. Which binding did it give?
A: binds

Q: With B7 as the binder, how does the binding read?
A: binds

Q: How did the binding turn out when B8 was run?
A: binds

Target: N-terminal portion of Venus (aa 1-155) fused to the CIRV p36 replication protein (Carnation Italian ringspot virus (CIRV))
Assay: split reporter; BiFC in yeast with the N-terminal (aa 1-155) and C-terminal (aa 155-236) portions of Venus; confocal laser microscopy after 24 hours at 29°C in galactose medium

Q: How did the binding turn out when B9 was run?
A: binds
